Results are given in words; binding and its absence hold for the method and conditions named. In cells and extracts the contact can be indirect. Some results given as binding are weak or reduced against the parent protein; the word gives no strength. For part of these data: Sequences can lack the tags named with a protein.
How the values were obtained:
[1] = target: T1, endogenous MDA5 (human (endogenous in HEK293T)) (UniProt Q9BYX4); experiment: cross-linking + co-IP
T1 sequence: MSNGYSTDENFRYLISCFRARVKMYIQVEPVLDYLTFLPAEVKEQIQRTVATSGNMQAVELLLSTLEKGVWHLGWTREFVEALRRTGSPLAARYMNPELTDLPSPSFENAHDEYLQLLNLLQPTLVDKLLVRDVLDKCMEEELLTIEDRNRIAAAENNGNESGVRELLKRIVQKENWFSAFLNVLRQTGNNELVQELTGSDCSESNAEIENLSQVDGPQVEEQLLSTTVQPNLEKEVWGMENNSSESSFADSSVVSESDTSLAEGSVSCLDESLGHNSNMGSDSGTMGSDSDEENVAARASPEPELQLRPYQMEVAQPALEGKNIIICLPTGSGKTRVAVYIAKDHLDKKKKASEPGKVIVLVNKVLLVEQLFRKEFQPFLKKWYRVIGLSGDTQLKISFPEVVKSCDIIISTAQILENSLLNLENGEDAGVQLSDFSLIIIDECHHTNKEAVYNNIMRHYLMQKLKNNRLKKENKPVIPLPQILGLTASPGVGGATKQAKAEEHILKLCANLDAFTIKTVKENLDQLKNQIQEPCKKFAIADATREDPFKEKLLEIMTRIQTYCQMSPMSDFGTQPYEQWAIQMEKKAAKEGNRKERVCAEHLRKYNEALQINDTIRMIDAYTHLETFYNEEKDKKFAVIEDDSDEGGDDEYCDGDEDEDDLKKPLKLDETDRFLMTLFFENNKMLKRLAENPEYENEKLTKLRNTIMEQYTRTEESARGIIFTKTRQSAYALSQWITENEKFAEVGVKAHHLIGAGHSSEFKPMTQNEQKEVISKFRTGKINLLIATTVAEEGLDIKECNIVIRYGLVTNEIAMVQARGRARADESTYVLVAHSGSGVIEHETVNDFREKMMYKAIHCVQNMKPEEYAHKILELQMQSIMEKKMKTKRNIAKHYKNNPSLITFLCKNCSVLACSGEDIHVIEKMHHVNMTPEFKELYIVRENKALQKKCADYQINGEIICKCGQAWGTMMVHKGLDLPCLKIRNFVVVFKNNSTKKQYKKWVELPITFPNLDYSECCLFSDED

GFP-MDA5 = target: T2, GFP-MDA5 (UniProt Q9BYX4); experiment: co-IP
T2 sequence: T1 sequence

HA-TRIM4 = target: T3, HA-TRIM4 (UniProt Q9C037); experiment: co-IP
T3 sequence: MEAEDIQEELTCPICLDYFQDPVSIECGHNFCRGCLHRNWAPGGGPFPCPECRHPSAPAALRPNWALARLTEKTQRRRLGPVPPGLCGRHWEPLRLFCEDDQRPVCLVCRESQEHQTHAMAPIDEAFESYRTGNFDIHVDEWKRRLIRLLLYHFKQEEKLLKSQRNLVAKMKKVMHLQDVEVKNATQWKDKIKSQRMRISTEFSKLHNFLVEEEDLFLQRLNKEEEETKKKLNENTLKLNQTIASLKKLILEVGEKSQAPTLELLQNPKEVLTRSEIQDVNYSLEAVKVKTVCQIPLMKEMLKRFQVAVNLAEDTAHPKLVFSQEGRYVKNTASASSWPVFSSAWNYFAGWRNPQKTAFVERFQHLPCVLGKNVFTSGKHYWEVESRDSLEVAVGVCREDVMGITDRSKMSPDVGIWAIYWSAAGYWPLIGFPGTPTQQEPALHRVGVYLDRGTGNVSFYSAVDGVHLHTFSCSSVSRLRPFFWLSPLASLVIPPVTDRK

nsp8 expressed from the Spike-deleted SARS-CoV-2 replicon (from UniProt P0DTD1 3943-4140)
binding [1]: binds

Flag-nsp8 (SARS-CoV-2 nonstructural protein 8) (from UniProt P0DTD1 3943-4140)
binding (GFP-MDA5): binds
binding (HA-TRIM4): binds

From article PMC10681309
